From publication PMC4752301
No constants are given. Whether binding was seen depends on the method and setting. Binding seen in cells or lysates may run through a third protein. Some binding calls cover weakened binding; strength is not graded here. Tags and fused reporters may be left off the sequences shown.

Sequences of proteins named here, by UniProt entry; tags and fusion partners are left off.
UniProt P02792: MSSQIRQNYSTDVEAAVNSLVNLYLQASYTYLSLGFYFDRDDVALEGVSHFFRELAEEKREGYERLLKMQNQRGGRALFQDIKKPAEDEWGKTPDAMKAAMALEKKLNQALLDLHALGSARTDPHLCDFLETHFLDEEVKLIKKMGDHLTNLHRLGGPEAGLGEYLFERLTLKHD

Target: T1, flag-Gadd45a (human) (UniProt P24522)
T1 sequence: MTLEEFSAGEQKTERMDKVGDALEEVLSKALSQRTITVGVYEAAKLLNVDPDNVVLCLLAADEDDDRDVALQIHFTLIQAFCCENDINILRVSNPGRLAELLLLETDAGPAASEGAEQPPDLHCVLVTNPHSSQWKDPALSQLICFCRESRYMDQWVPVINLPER
Experiment: co-IP; HEK 293T cells co-transfected with myc-FTL and flag-Gadd45a; lysis in 25 mM Tris-HCl pH 7.5, 150 mM NaCl, 0.5% Nonidet P-40; mutual IP with anti-myc or anti-flag antibody (control IgG), 4°C overnight, Protein G Plus-Agarose; blots with anti-myc and anti-flag

binding: binds
Substance: myc-FTL (ferritin light chain) (from UniProt P02792 1-175)
